Data reported in patent publication US20260256761A1, “COMPOSITIONS AND METHODS FOR THE IDENTIFICATION OF INHIBITORS OF AND TREATMENT FOR ECTOPIC CALCIFICATION” (UNIVERSITY OF PITTSBURGH-OF THE COMMONWEALTH SYSTEM OF …, priority 2022, published 2026).
Results are given in words; binding and its absence hold for the method and conditions named. For part of these data: Binding seen in cells or lysates may run through a third protein. Some entries that bind do so weakly or less than the wild type.

Amino acid sequences for entries named in this document (tags omitted). A change or cut given only in a name is not applied to a line headed by its entry.
UniProt P42229: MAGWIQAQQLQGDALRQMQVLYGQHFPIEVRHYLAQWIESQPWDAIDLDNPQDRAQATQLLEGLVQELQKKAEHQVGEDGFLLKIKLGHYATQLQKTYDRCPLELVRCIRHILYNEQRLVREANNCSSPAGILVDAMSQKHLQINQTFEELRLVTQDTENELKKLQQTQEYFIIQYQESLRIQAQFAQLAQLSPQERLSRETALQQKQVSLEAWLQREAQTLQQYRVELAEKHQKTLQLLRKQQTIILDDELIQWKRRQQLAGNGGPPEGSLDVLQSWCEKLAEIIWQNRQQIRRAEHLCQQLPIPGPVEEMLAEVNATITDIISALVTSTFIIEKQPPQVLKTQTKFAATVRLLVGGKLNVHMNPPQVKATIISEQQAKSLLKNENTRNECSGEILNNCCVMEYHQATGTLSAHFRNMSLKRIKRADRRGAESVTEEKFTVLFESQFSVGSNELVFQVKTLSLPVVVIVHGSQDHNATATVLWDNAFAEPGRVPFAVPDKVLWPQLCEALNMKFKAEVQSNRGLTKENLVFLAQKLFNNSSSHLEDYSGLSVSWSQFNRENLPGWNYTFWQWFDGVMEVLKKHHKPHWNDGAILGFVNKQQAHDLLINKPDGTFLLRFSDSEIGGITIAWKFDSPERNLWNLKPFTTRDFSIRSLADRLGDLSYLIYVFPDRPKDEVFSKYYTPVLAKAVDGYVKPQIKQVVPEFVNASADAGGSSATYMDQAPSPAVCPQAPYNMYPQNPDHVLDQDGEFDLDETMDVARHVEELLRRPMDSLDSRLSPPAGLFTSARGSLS
UniProt O14746: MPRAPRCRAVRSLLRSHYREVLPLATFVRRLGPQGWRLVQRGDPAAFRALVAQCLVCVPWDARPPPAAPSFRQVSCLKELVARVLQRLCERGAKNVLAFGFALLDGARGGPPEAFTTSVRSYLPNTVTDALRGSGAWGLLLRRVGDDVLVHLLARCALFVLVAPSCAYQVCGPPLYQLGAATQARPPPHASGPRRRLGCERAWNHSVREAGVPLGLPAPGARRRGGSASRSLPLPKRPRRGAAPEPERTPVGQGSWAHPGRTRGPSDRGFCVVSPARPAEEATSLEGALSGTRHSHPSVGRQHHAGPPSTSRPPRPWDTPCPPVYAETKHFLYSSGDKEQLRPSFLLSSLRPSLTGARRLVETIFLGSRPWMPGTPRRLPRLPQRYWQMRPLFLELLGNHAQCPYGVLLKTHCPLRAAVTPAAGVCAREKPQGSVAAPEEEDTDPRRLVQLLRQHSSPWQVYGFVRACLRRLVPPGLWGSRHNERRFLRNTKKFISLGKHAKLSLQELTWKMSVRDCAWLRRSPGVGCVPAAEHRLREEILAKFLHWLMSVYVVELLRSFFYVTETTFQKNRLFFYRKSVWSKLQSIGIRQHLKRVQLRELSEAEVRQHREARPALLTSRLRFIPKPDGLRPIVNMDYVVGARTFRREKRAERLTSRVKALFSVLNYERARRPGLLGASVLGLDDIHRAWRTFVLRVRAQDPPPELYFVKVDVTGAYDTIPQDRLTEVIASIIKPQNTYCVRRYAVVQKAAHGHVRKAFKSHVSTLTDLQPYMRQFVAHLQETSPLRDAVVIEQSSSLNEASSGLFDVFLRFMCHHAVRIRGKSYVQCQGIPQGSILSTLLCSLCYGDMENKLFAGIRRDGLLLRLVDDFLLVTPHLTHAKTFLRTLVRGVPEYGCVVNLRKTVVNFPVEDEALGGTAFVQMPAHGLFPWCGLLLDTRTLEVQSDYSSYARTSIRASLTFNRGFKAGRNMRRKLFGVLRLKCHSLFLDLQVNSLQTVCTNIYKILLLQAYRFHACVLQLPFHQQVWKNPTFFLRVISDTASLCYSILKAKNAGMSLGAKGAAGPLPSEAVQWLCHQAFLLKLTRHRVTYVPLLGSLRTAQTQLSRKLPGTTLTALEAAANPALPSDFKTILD

Assays:
[1] = biological target: Signal Transducer and Activator of Transcription 5A/B (STAT5), endogenous human (human) (UniProt P42229); assay: proximity ligation assay (<40 nm) in fixed human AVICs, control and CAVD, 21 days in osteogenic medium
[2] = biological target: Signal Transducer and Activator of Transcription 5A/B (STAT5), endogenous human (human) (UniProt P42229); assay: proximity ligation assay in fixed control AVICs
[3] = biological target: Signal Transducer and Activator of Transcription 5A/B (STAT5), endogenous human (human) (UniProt P42229); assay: proximity ligation assay in fixed CAVD AVICs
[4] = biological target: Signal Transducer and Activator of Transcription 5A/B (STAT5), endogenous human (human) (UniProt P42229); assay: discussion summing up the PLA and ChIP results in AVICs
[5] = biological target: Signal Transducer and Activator of Transcription 5A/B (STAT5), endogenous human (human) (UniProt P42229); assay: co-immunoprecipitation of endogenous proteins from hVICs in NT or OST media for ten days
[6] = biological target: Signal Transducer and Activator of Transcription 5A/B (STAT5), endogenous human (human) (UniProt P42229); assay: discussion summing up the PLA results in AVICs

- binding [1]: binds
- binding [2]: binds
- binding [3]: binds
- binding [4]: binds
- binding [5]: binds
- binding [6]: binds
Substance: Telomerase reverse transcriptase (TERT), endogenous human (from UniProt O14746 1-1132) (enzyme)
